Experimental data published in publication PMC11167002.
No constants are given. Whether binding was seen depends on the method and setting. Binding seen in cells or lysates may run through a third protein. Some entries that bind do so weakly or less than the wild type.

The chains behind the UniProt entries cited, without tags or fusion partners.
UniProt Q8ND24: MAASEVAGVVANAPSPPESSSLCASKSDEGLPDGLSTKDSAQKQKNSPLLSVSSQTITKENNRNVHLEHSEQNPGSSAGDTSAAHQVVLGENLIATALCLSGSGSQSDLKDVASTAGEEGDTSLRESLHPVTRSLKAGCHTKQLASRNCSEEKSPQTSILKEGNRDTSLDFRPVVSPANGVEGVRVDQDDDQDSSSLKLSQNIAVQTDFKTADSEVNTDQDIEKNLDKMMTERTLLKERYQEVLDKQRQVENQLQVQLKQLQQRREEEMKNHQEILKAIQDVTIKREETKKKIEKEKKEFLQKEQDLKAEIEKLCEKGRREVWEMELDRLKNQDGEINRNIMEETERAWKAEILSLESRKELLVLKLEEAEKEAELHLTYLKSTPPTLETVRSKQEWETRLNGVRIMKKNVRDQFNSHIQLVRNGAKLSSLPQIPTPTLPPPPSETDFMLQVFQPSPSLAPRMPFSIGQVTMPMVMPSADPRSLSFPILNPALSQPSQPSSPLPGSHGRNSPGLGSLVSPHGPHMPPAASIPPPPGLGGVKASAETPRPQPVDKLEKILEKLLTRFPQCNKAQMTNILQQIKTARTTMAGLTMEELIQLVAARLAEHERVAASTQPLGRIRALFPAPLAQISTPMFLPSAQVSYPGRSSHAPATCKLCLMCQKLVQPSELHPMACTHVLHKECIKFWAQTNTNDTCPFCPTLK

Biological target: Flag-RNF214 (human) (UniProt Q8ND24)
Assay: co-IP; HA-tagged and Flag-tagged RNF214 expressed together; wild type and coiled-coil deletion mutant; cells not told in the text shown

binding: binds
Substance: Flag-RNF214 (from UniProt Q8ND24 1-703)
